The source of these data is publication PMC6788708.

Protein sequences, listed by entry. Tags and fused reporters are not part of them.
UniProt P73407: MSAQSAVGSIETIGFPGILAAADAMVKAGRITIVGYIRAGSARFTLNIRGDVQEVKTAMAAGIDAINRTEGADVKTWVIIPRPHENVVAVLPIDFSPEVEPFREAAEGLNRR

Assay [1] deals with T1, CcmK3-His4 (Synechocystis sp. PCC6803 CcmK3, C-ter His4 tag) (Synechocystis sp. PCC6803) (UniProt P73406).
T1 sequence: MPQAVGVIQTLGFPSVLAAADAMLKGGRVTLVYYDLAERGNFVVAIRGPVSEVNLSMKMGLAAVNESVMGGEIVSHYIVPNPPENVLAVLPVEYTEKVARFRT
The assay can be described thus: pull-down; four CcmK with His4, StrepTag, FLAG and HA tags co-expressed in E. coli BL21(DE3) (four-cassette plasmid, IPTG or auto-induction); TALON purification; Coomassie and western blots with streptactin-AP, anti-FLAG, anti-HA.

In assay [2] the target is His4-CcmK4 (Synechocystis sp. PCC6803 CcmK4, N-ter His4 tag) (Synechocystis sp. PCC6803) (UniProt P73407). The assay can be described thus: pull-down; couples of His4- and FLAG-tagged Syn6803 CcmK co-expressed in E. coli BL21(DE3) (two-cassette pET26b plasmid, IPTG); soluble fraction on cobalt TALON resin in 20 mM NaPi, 300 mM NaCl, 10 mM imidazole, pH 8.0, eluted with 300 mM imidazole; Coomassie SDS-PAGE and anti-FLAG western blot of purified fractions. A general note: A western blot detects proteins with antibodies after separation by electrophoresis.

Assay [3] addresses CcmK4-His4 (Synechocystis sp. PCC6803 CcmK4, C-ter His4 tag) (Synechocystis sp. PCC6803) (UniProt P73407). The assay is described as above.
For assay [4], the target named is His4-CcmK4 (Synechocystis sp. PCC6803 CcmK4, N-ter His4 tag) (Synechocystis sp. PCC6803) (UniProt P73407). The assay can be described thus: pull-down; purified doubly tagged His4/FLAG homo- or hetero-hexamer (2 uM) in 50 mM NaPi pH 8.0, 100 mM NaCl, 0.15 mg/mL BSA, overnight at room temperature without or with untagged K1 or K4 (6 uM); then bound to TALON resin, anti-FLAG western blot; both purified.

No constants are given. Whether binding was seen depends on the method and setting. For some assays here: In cells and extracts the contact can be indirect. Some entries that bind do so weakly or less than the wild type. For some assays here: Where a sequence is shown, tags or fusion partners need not be part of it.

Turning to “FLAG-CcmK4 (Synechocystis sp. PCC6803 CcmK4, N-ter FLAG tag) (from UniProt P73407 1-112)”, the binding result in assay [1] is “binds”.
For “CcmK4-FLAG (Synechocystis sp. PCC6803 CcmK4, C-ter FLAG tag) (from UniProt P73407 1-112)”, the binding result in assay [1], in assay [2], in assay [3] and in assay [4] was “binds” each time.
